No constants are given. Whether binding was seen depends on the method and setting. In cells and extracts the contact can be indirect. Binding calls can cover weak binding; strength is not graded here.
Biological target: Glutathione-S-transferases mu 2 (GSTM2) (pig)
Assay: co-IP; ST cells transfected with GFP-pcDNA3.1-GSTM2 for 24 h; lysate supernatant incubated with 2 ug anti-GSTM2 (IgG as control) at 4 °C for 5 h, Protein A/G beads, washed 5 times with PBS containing 0.05% Tween 20; western blotting

binding: binds
B1: STAT1 (protein, UniProt Q764M5 1-753)
chain: MSQWYELQQLDSKFLEQVHQLYDDSFPMEIRQYLAQWLENQDWEHAANDVSFATIRFHDLLSQLDDQYSRFSLENNFLLQHNIRKSKRNLQDNFQEDPIQMSMIICNCLKEERKILENAQRFNQTQSGNIQSTVMLDKHKELDSKVRNVKDKVMCIEHEIKTLEDLQDEYDFKCKTLQNREHDTNGVAKNDQKQEQMLLQKMYLMLDNKRKEVVHKIIELLNVTELTQKALINDELVEWKRRQQSACIGGPPNACLDQLQNWFTIVAESLQQVRQQLKKLEELEQKYTYEHDPITKNKQALWDRTFSLFQQLIQSSFVVERQPCMPTHPQRPLVLKTGVQFTVKLRLLVKLQELNYNLKVKVLFDKDVSERNTVKGFRKFNILGTHTKVMNMEESTNGSLAAEFRHLQLKEQKNAGARTNEGPLIVTEELHSLSFETQLCQPGLVIDLETTSLPVVVISNVSQLPSGWASILWYNMLVAEPRNLSFFLNPPCARWSQLSEVLSWQFSSVTKRGLNVDQLNMLGEKLLGPTAGPDGLIPWTRFCKENINDKNFPFWLWIESILELIKKHLLSLWNDGCIVGFISKERERALLKDQQPGTFLLRFSESCREGAITFTWVERSQNGGEPYFHAVEPYTKKELSAVTFPDIIRNYKVMAAENIPENPLKYLYPNIDKDHAFGKYYSRPKEAPEPMELDGPKGTGYIKTELISVSEVHPSRLQTTDNLLPMSPEEFDEVSRMVGPVEFDMVSMTRGRS

From article PMC5131268
